Measurements reported in PubChem BioAssay AID504764 (Drosophila RNAi Screening Center, 2011)

Purpose: 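Genes whose knock-down alters Notch-dependent transcription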 (primary screen)
Cell system: Drosophila Kc167 cells
Reagent: long dsRNA against Drosophila genes
Timing: about 5 days (4 days dsRNA, then 24 h after transfection)
Challenge: transfection of constitutively active membrane-tethered Notch lacking the extracellular domain, read 24 h later
Measured: 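Light from a Notch-responsive E(spl)m3 luciferase reporter under active Notch, with control-promoter and no-Notch reporter wells to normalise; raw counts from paired wells a and b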
Scale: induced reporter light, run 1, well a and induced reporter light, run 1, well b: higher = more light from the Notch target reporter with active Notch; control promoter light, run 1, well a and control promoter light, run 1, well b: higher = more light from the viral control promoter (cell number, transfection, viability); uninduced reporter light, run 1, well a: higher = more light from the Notch target reporter without active Notch
Hit rule: 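Wells with low control signal or poorly matching duplicates excluded; duplicates averaged; per source plate, z beyond ±2 for induced/control log2 ratio or beyond ±1.8 for induced/uninduced marks a hit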
Meaning of the calls: active = modifier hit (raised or lowered Notch signal); inactive = not a hit
The screen tested about 22,000 reagents; this is a random part of those with a known target gene and a result. Of all reagents, 403 (1.9%) were called active. 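Unnormalised raw counts per well; ratio z-scores behind the hit calls and whether each hit raises or lowers signal are not deposited.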 A plus sign joins genes that one reagent is predicted to hit. Not stated in the record: the amount of reagent.

| gene knocked down | dsRNA | induced reporter light, run 1, well a | induced reporter light, run 1, well b | control promoter light, run 1, well a | control promoter light, run 1, well b | uninduced reporter light, run 1, well a | Outcome |
| --- | --- | --- | --- | --- | --- | --- | --- |
| CG10681 | DRSC09777 | 1.11e5 | 96785 | 94015 | 40955 | 10310 | inactive |
| CG2663 | DRSC12314 | 80855 | 95475 | 1.45e5 | 1.04e5 | 8715 | inactive |
| CG5781 | DRSC02893 | 1.34e5 | 1.61e5 | 1.31e5 | 1.25e5 | 12790 | inactive |
| Hers + amn | DRSC20306 | 1.03e5 | 1.12e5 | 81655 | 1.36e5 | 12450 | inactive |
| CG3534 | DRSC15494 | 2.36e5 | 2.65e5 | 2.26e5 | 2.32e5 | 20542 | inactive |
| CG42288 | DRSC06381 | 82710 | 96925 | 1.31e5 | 1.19e5 | 8785 | inactive |
| fand | DRSC06967 | 98900 | 85385 | 1.10e5 | 88590 | 6825 | inactive |
| Ndc80 | DRSC20221 | 2.05e5 | 1.76e5 | 3.33e5 | 2.69e5 | 14570 | inactive |
| CG8188 | DRSC20090 | 68055 | 75730 | 72240 | 66935 | 9745 | inactive |
| CG8042 | DRSC09676 | 1.10e5 | 1.23e5 | 77925 | 37495 | 9845 | inactive |
| TfIIS | DRSC03455 | 2.53e5 | 2.22e5 | 2.58e5 | 2.51e5 | 19125 | inactive |
| spag | DRSC04717 | 2.00e5 | 1.90e5 | 2.02e5 | 2.01e5 | 15500 | inactive |
| CG9331 | DRSC03206 | 1.65e5 | 1.84e5 | 99950 | 1.44e5 | 10445 | inactive |
| mei-9 | DRSC18792 | 1.40e5 | 1.23e5 | 2.56e5 | 2.70e5 | 9138 | inactive |
| Obp99a | DRSC15303 | 1.06e5 | 1.03e5 | 1.34e5 | 1.37e5 | 7920 | inactive |
| InR | DRSC16717 | 1.66e5 | 1.29e5 | 1.55e5 | 1.41e5 | 10375 | inactive |
| CG15225 | DRSC04232 | 46575 | 45320 | 45780 | 32605 | 1840 | inactive |
| CG13843 | DRSC14693 | 1.89e5 | 1.42e5 | 1.83e5 | 1.79e5 | 12250 | inactive |
| swi2 | DRSC06457 | 36150 | 40655 | 32670 | 47955 | 3355 | inactive |
| Drice | DRSC16715 | 1.52e5 | 1.66e5 | 1.94e5 | 2.21e5 | 11778 | inactive |
| exu | DRSC07615 | 1.19e5 | 99085 | 2.30e5 | 2.43e5 | 11080 | inactive |
| CG11893 | DRSC14429 | 1.36e5 | 1.67e5 | 2.12e5 | 1.91e5 | 14095 | inactive |
| BCL7-like | DRSC17729 | 1.93e5 | 1.75e5 | 2.49e5 | 2.17e5 | 13195 | inactive |
| CG12268 | DRSC14491 | 1.74e5 | 2.29e5 | 2.43e5 | 2.73e5 | 18660 | inactive |
| pzg | DRSC11848 | 88510 | 91990 | 88395 | 1.10e5 | 9665 | inactive |
| CG7044 | DRSC16180 | 2.16e5 | 1.95e5 | 2.48e5 | 2.60e5 | 17800 | inactive |
| CG34125 | DRSC00850 | 46465 | 50535 | 30855 | 25860 | 4850 | inactive |
| atlas | DRSC04183 | 2.33e5 | 2.02e5 | 2.30e5 | 1.99e5 | 16928 | inactive |
| Jon65Ai | DRSC09731 | 2.47e5 | 1.95e5 | 2.74e5 | 2.15e5 | 10170 | inactive |
| GstS1 | DRSC07436 | 70125 | 1.14e5 | 1.48e5 | 2.29e5 | 10315 | inactive |
| Stip1 | DRSC00756 | 1.08e5 | 1.27e5 | 94885 | 1.01e5 | 11145 | inactive |
| CG8673 | DRSC03105 | 1.41e5 | 1.87e5 | 1.06e5 | 1.49e5 | 21888 | inactive |
| CG14230 | DRSC19586 | 1.67e5 | 1.33e5 | 1.03e5 | 86695 | 12165 | inactive |
| dom | DRSC04558 | 85575 | 88555 | 96035 | 1.10e5 | 8780 | inactive |
| dom | DRSC04559 | 71360 | 47095 | 75635 | 88605 | 4630 | inactive |
| CG31231 | DRSC13308 | 71165 | 55015 | 1.05e5 | 86130 | 9815 | inactive |
| Gem3 | DRSC11144 | 2.48e5 | 1.86e5 | 3.30e5 | 1.96e5 | 11560 | inactive |
| CG8135 + BBIP1 | DRSC12739 | 1.19e5 | 1.40e5 | 1.11e5 | 1.02e5 | 8600 | inactive |
| CG8135 + BBIP1 | DRSC16384 | 71545 | 84245 | 79615 | 49460 | 4410 | inactive |
| Mcr | DRSC03366 | 2.18e5 | 2.16e5 | 2.34e5 | 2.51e5 | 20725 | inactive |
| CG14034 | DRSC02359 | 55890 | 39655 | 50075 | 42990 | 2840 | inactive |
| CG14442 | DRSC17935 | 53325 | 45640 | 51235 | 54215 | 7220 | inactive |
| ind | DRSC11355 | 11695 | 9028 | 13030 | 13555 | 3990 | inactive |
| CG44014 | DRSC14995 | 1.70e5 | 2.01e5 | 1.85e5 | 1.91e5 | 14105 | inactive |
| wam | DRSC15171 | 1.50e5 | 1.63e5 | 1.89e5 | 1.77e5 | 13485 | inactive |
| CG7276 | DRSC10797 | 2.55e5 | 2.02e5 | 3.03e5 | 3.23e5 | 10405 | inactive |
| Vps24 | DRSC12332 | 91990 | 85980 | 59110 | 72135 | 8250 | inactive |
| CG2841 | DRSC17699 | 72165 | 80750 | 1.02e5 | 89790 | 4960 | inactive |
| CG2841 | DRSC18824 | 1.03e5 | 1.15e5 | 1.91e5 | 1.74e5 | 7610 | inactive |
| stmA | DRSC05120 | 50010 | 78150 | 85385 | 1.04e5 | 3120 | inactive |
| stmA | DRSC07593 | 1.21e5 | 89365 | 85495 | 84900 | 7842 | inactive |
| Shab | DRSC08013 | 1.58e5 | 1.72e5 | 1.73e5 | 1.32e5 | 14438 | inactive |
| Shab | DRSC08643 | 1.24e5 | 1.06e5 | 2.14e5 | 1.94e5 | 10325 | inactive |
| Shab | DRSC08699 | 94465 | 88840 | 1.74e5 | 1.58e5 | 7680 | inactive |
| CG12123 | DRSC17818 | 1.89e5 | 1.37e5 | 1.93e5 | 1.48e5 | 12210 | inactive |
| CG9663 | DRSC00724 | 2.13e5 | 1.74e5 | 1.67e5 | 1.88e5 | 14605 | inactive |
| Jon25Bii | DRSC03114 | 2.24e5 | 1.98e5 | 2.01e5 | 2.03e5 | 13455 | inactive |
| Hug | DRSC16969 | 81395 | 84310 | 88255 | 61405 | 6690 | inactive |
| lace | DRSC03564 | 2.15e5 | 2.18e5 | 1.65e5 | 1.76e5 | 12528 | inactive |
| CG15093 | DRSC06522 | 90130 | 1.00e5 | 1.54e5 | 1.72e5 | 7092 | inactive |
| TAF1B | DRSC16001 | 1.23e5 | 1.31e5 | 89495 | 96370 | 9930 | inactive |
| Vps15 | DRSC16553 | 1.01e5 | 1.07e5 | 77510 | 70820 | 9130 | inactive |
| DEF8 | DRSC09840 | 1.33e5 | 1.21e5 | 84395 | 56595 | 11750 | inactive |
| CG12105 | DRSC08255 | 97780 | 1.05e5 | 1.61e5 | 1.91e5 | 9665 | inactive |
